{"source": "patent US8129336B1", "about": "“Inhibitor of the uracil-DNA glycosylase enzyme and uses thereof” (Consejo Superior de Investigaciones Cientificas, priority 2005, dated 2012)", "key": {"UDG enzyme of E. coli": {"target": "T1, UDG enzyme of E. coli (Escherichia coli, UniProt P12295)", "T1 construct": "purchased New England Biolabs", "T1 sequence (P12295 1-229)": "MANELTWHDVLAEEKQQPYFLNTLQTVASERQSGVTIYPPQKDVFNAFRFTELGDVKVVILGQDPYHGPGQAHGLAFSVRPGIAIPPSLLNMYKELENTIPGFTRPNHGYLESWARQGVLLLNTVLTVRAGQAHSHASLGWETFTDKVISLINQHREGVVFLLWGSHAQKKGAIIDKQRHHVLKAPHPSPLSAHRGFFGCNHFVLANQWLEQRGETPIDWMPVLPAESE", "assay": "Interaction with UDG analysed in native polyacrylamide gel", "type": "binding", "details": "2 μg p56 with 0.2 μg UDG, 15 minutes at ambient temperature; Western blot and peptide mass fingerprinting"}, "[1]": {"target": "T2, UDG activity of B. subtilis (Bacillus subtilis, UniProt P39615)", "T2 construct": "incubated with 1.6 μg of the cell extract; endogenous in cells; host or cells: B. subtilis 110NA (crude cell extract)", "T2 sequence (P39615 1-225)": "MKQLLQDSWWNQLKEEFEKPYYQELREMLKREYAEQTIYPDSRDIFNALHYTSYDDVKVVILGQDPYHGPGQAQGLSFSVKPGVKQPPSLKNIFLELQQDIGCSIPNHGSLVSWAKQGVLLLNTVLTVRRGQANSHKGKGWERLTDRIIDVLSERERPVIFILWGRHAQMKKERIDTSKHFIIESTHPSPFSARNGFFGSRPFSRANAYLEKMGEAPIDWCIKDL", "assay": "Inhibition of UDG activity in B. subtilis cell extract (ssDNA-U16 splicing, polyacrylamide-urea gel)", "type": "biochemical"}}, "note": "At least one peptide structure holds a part that was inferred or is arguable (an end, a ring closure or a residue). Ends that are not written are not given here.", "data": [{"sequence": "MVQNDFVDSYDVTMLLQDDDGKQYYEYHKGLSLSDFEVLYGNTADEIIKLRLDKVL [p56]", "values": [{"measurement": "complex formation with UDG (band shift)", "setting": "UDG enzyme of E. coli", "value": "band contained p56 and UDG"}, {"measurement": "inhibition of UDG activity (overall conclusion)", "setting": "[1]; 0.5 ng to 16 ng protein p56 with 1.6 μg cell extract", "value": "inhibits UDG activity"}, {"measurement": "quantity of splicing product", "setting": "[1]; 2 ng protein p56, 1.6 μg cell extract, 0.55 ng ssDNA-U16 substrate, 37° C., 10 minutes", "value": "a decrease in the quantity of splicing product was detected"}, {"measurement": "state of the substrate (splicing)", "setting": "[1]; 8 ng protein p56, 1.6 μg cell extract, 0.55 ng ssDNA-U16 substrate, 37° C., 10 minutes", "value": "the substrate remained intact"}]}]}
